# Laboratory results as given in PubChem BioAssay AID485353 (National Center for Advancing Translational Sciences (NCATS), 2010).
# Screen size: about 330,000 compounds; about 610 (0.18%) were called active. Inconclusive means that the source gave no clear call. Such entries were picked first, then a sample of the others. Calls follow the shape of the full dose curve. Potencies of inconclusive entries are doubtful fits and often do not repeat.
# Test: qHTS of Yeast-based Assay for SARS-CoV PLP; also: nearly all actives have a fitted effect of over 55% in size
# Conditions: S. cerevisiae expressing SARS-CoV PLpro; Potency: growth rescue; series mostly up to 32.9 µM
# Potency is read from the fitted curve at half-maximal effect.
row,Structure (SMILES),Potency
1,Clc1ccc(OCc2nnc(-c3ccccc3Br)o2)cc1,"inconclusive: 20 µM [activator, single point]"
2,O=c1c2ccccc2c(C=NCCO)c(O)n1-c1ccccc1,"inconclusive: 4.47 µM [activator, single point]"
3,O=[N+]([O-])c1cc(-c2cnc3ccccc3n2)ccc1Oc1ccc(F)cc1,inactive
4,COCCCn1c(=O)c2sccc2n2c(CCCC(=O)NCc3cccc(OC)c3)nnc12,"inconclusive: 10 µM [activator, single point]"
5,FC(F)(F)c1cccnc1Oc1ccc(C2=NCCS2)cc1,inactive
6,Cc1noc(C)c1COC(=O)c1cc2c3ccccc3n(C)c2s1,"inconclusive: 4.47 µM [activator, single point]"
7,Nc1ccccc1N=Cc1ccc(-c2cccc(Cl)c2)o1,inactive
8,O=C(NCCCN1CCCC1=O)c1cc2nc(-c3ccco3)cc(C(F)(F)F)n2n1,active: 22.4 µM
9,O=C(Nc1ccc(Cl)c(Cl)c1)Nc1cc(S(=O)(=O)N2CCOCC2)ccc1N1CCCC1,"inconclusive: 3.16 µM [activator, partial curve]"
10,Cc1ccc(C)c(NC(=O)CN(C)C(=O)CSCc2c(C)noc2C)c1,inactive
11,N#CCCn1nc(-c2ccccc2)cc1Nc1ccccc1NC(=O)C(F)(F)F,"inconclusive: 20 µM [activator, partial curve, poor fit]"
12,CCCCOc1ccc(C2C(C(=O)c3ccc(C)o3)=C(O)C(=O)N2CC2CCCO2)cc1 (stereo unspecified),"inconclusive: 10 µM [activator, single point]"
13,CCCn1nnnc1NCc1ccc(N(CC)CC)cc1,inactive
14,Cc1ccc2[nH]cc(C(=O)CN3CCN(C)CC3)c2c1,"inconclusive: 4.47 µM [activator, single point]"
15,C/C(=N\NC(=O)c1ccc(Br)cc1)c1cccnc1,"inconclusive: 2.24 µM [activator, single point]"
16,N/C(=N\OC(=O)c1ccc(Br)o1)c1cccnc1,inactive
17,CCCS(=O)(=O)c1nc(S(=O)(=O)c2ccc(C)cc2)c(NCc2ccc3c(c2)OCO3)s1,"inconclusive: 22.4 µM [activator, single point]"
18,COc1ccc(-c2noc(CCC(=O)O)n2)cc1,"inconclusive: 3.55 µM [activator, full curve, poor fit]"
19,CCCCc1ccc(N2C(=NC(=O)C3CCCO3)SC3CS(=O)(=O)CC32)cc1 (stereo unspecified),"inconclusive: 2.82 µM [activator, single point]"
20,COC(=O)c1cc(NC(=O)CN(c2ccc(OC)cc2)S(=O)(=O)c2ccc(F)cc2)ccc1Cl,"inconclusive: 22.4 µM [activator, partial curve, poor fit]"
21,Cc1c(C(=O)Oc2cccc3cccnc23)cccc1[N+](=O)[O-],inactive
22,Cc1nc2scc(C)n2c(=O)c1S(=O)(=O)NC(C)c1ccccc1 (stereo unspecified),"inconclusive: 3.98 µM [activator, single point]"
23,COc1ccc(S(=O)(=O)N2CCC(C(=O)NCc3ccccn3)CC2)cc1C,inactive
24,CCOc1cc(/C=C2\C(=N)N3N=C(CC)SC3=NC2=O)ccc1OCCOc1ccc(NC(C)=O)cc1,inactive

# A stretch from the list above:
row,Structure (SMILES),Potency
10,Cc1ccc(C)c(NC(=O)CN(C)C(=O)CSCc2c(C)noc2C)c1,inactive
11,N#CCCn1nc(-c2ccccc2)cc1Nc1ccccc1NC(=O)C(F)(F)F,"inconclusive: 20 µM [activator, partial curve, poor fit]"
12,CCCCOc1ccc(C2C(C(=O)c3ccc(C)o3)=C(O)C(=O)N2CC2CCCO2)cc1 (stereo unspecified),"inconclusive: 10 µM [activator, single point]"

# Next compounds.

row,Structure (SMILES),Potency
1,COc1ccccc1C1Nc2ccccc2NC2=C1C(=O)CC(C)(C)C2 (stereo unspecified),inactive
2,CCN1CCN(C(=O)c2ccc(CS(=O)(=O)Cc3ccccc3C)o2)CC1,"inconclusive: 12.6 µM [activator, partial curve]"
3,CS(=O)(=O)N(CC(=O)Nc1ccc(Br)cc1)C1CCCCC1,"inconclusive: 4.47 µM [activator, single point]"
4,COC(=O)c1ccc(N2CCN(c3ccccc3)CC2)c(NC(=O)C2CC2)c1,inactive
5,CCc1ccc(-c2nc(CS(=O)CC(=O)NCc3ccc4c(c3)OCO4)c(C)o2)cc1 (stereo unspecified),"inconclusive: 3.98 µM [activator, single point]"
6,Cc1ccc(S(=O)(=O)N2CCOCC2)cc1C(=O)OC(C)C(=O)c1ccccc1 (stereo unspecified),inactive
7,COc1ccc(-c2cc(=O)oc3cc(OCC(=O)N[C@@H](Cc4c[nH]c5ccccc45)C(=O)O)ccc23)cc1,"inconclusive: 2 µM [activator, full curve]"
8,Cn1c(=O)c(C(=O)NCCc2ccccc2)c(O)c2ccccc21,"inconclusive: 3.16 µM [activator, single point]"
9,OCCCc1nc2n(n1)C(c1cccs1)C=C(c1ccccc1)N2 (stereo unspecified),"inconclusive: 3.98 µM [activator, single point]"
10,Cc1coc2cc3oc(=O)c(CCC(=O)NCCCN4CCOCC4)c(C)c3cc12,"inconclusive: 3.55 µM [activator, single point]"
11,S=C(NNc1ccnc2cc(Cl)ccc12)Nc1ccccc1Cl,inactive
12,CN(C)C(=S)Nc1ccc2ccccc2c1,"inconclusive: 20 µM [activator, single point]"
13,CCCCNc1cc(C)nc(N2CCOCC2)n1,"inconclusive: 4.47 µM [activator, single point]"
14,COC(=O)c1ccc(CS(=O)(=O)c2ccc(F)cc2)o1,inactive
15,O=C(CN1C(=O)c2cccnc2Oc2ccc(Cl)cc21)N1CCCCCC1,inactive
16,S=C(NCc1ccccc1)NCc1cccc(Cl)c1,"inconclusive: 15.8 µM [activator, single point]"
17,Cc1cc(C)c2[nH]c(=O)c(C(c3nnnn3C(C)(C)C)N(Cc3ccco3)CC3CCCO3)cc2c1 (stereo unspecified),inactive
18,O=C(Nc1ccc(C(=O)N2CCCCC2)cc1)c1ccccc1Cl,inactive
19,Cc1cccc(C(=O)OCC(=O)c2ccc3c(c2)NC(=O)CO3)c1,inactive
20,Cc1ccc(NC(=O)CSc2ccc(-c3ccccn3)nn2)cc1,"inconclusive: 3.98 µM [activator, full curve, poor fit]"
21,c1ccc2c(CNC3CCCCCC3)c[nH]c2c1,"inconclusive: 11.2 µM [activator, single point]"
22,O=C(CNC(=O)c1ccc(Br)o1)NNC(=O)c1ccccc1O,"inconclusive: 17.8 µM [activator, partial curve, poor fit]"
23,CC1(C)CC(=O)C([N+](=O)[O-])=C(NCCCO)C1,"inconclusive: 1.78 µM [activator, partial curve]"
24,COc1ccc(S(=O)(=O)N(C)C)cc1NCC(=O)Nc1cccc(C#N)c1,inactive

row,Structure (SMILES),Potency
1,CC(=O)c1ccc(S(=O)(=O)N2CCc3ccccc3C2)cc1,inactive
2,Cc1cccc(NC(=S)/N=C(\N)Nc2nc(C)c3ccccc3n2)c1,"inconclusive: 15.8 µM [activator, partial curve, poor fit]"
3,COC(=O)C12CC3CC(C1)CC(n1cnc(Cl)n1)(C3)C2,"inconclusive: 2.24 µM [activator, partial curve, poor fit]"
4,CCCCn1c(Cc2ccccc2)nnc1SCC(=O)N1CCOCC1,"inconclusive: 2 µM [activator, full curve]"
5,O=C(Nc1ccccc1C(=O)N1CCOCC1)c1ccncc1,"inconclusive: 3.55 µM [activator, single point]"
6,CCOc1ccccc1C(=O)OCC(=O)Nc1cc(S(=O)(=O)N2CCOCC2)ccc1C,inactive
7,O=C(Nc1ccc(S(=O)(=O)N2CCOCC2)cc1)c1cc([N+](=O)[O-])ccc1Cl,"inconclusive: 12.6 µM [activator, single point]"
8,COc1ccc(OC(=O)c2ccncc2)cc1,"inconclusive: 4.47 µM [activator, single point]"
9,O=C(c1ccccc1F)N1CCC(N2CCCCCC2)CC1,"inconclusive: 3.16 µM [activator, full curve, poor fit]"
10,Cc1cccc(OCCC(=O)OCC(=O)Nc2c(C)nn(-c3ccccc3)c2C)c1,"inconclusive: 3.98 µM [activator, single point]"
11,COc1ccccc1C1CC(c2ccc(NS(C)(=O)=O)cc2)=NN1S(=O)(=O)c1ccccc1 (stereo unspecified),"inconclusive: 20 µM [activator, single point]"
12,C=CCN(c1ccccc1)S(=O)(=O)c1cccc(C(=O)NCC(c2ccc(OC)cc2)N2CCCCC2)c1 (stereo unspecified),inactive
13,NC(=S)N/N=C1\CCSc2ccc(Cl)cc21,inactive
14,CC(C)CN(CCCNC(=O)CN1C(=O)COc2ccc(S(=O)(=O)N3CCCCCC3)cc21)CC(C)C,"inconclusive: 20 µM [activator, single point]"
15,CCC(=O)N(Cc1c(C)nn(-c2ccccc2)c1Cl)c1ccc(Cl)cc1,"inconclusive: 22.4 µM [activator, single point]"
16,C=CCNC(=S)N/N=C/c1ccc(C(C)(C)C)cc1,"inconclusive: 3.98 µM [activator, single point]"
17,CCc1nc(SCC(=O)NNC(=O)c2ccc(OC)cc2)c2ccccc2n1,inactive
18,CN1C(=O)/C(=C/c2ccccc2OCc2ccccc2)NC1=S,"inconclusive: 22.4 µM [activator, single point]"
19,O=C(CSCC(=O)Nc1cccc([N+](=O)[O-])c1)Nc1ccccc1,"inconclusive: 5.01 µM [activator, partial curve]"
20,CCOC(=O)c1cc(=O)n(-c2ccc(Cl)cc2C)[nH]1,"inconclusive: 12.6 µM [activator, single point]"
21,CCOC(=O)c1c(NC(=O)CCN2C(=O)c3ccccc3C2=O)sc(C(=O)OC(C)C)c1C,inactive
22,C=CCNC(=S)NCCCCC1NC(=S)N(CC=C)C1=O (stereo unspecified),"inconclusive: 8.91 µM [activator, single point]"
23,CC(Nc1nc(N2CCCC2)nc2ccccc12)c1ccccc1 (stereo unspecified),"inconclusive: 3.98 µM [activator, single point]"
